Results are given in words; binding and its absence hold for the method and conditions named. Binding seen in cells or lysates may run through a third protein. Some entries that bind do so weakly or less than the wild type.
How the values were obtained:
[1] = target: Jagged1 (human (endogenous in HUVEC)) (UniProt P78504); assay: co-IP; Jagged1 immunoprecipitated from ECs under static and shear stress conditions; precipitate immunoblotted (phosphospecific vimentin antibodies for Fig. 4F)
[2] = target: Jagged1 (human (endogenous in HUVEC)) (UniProt P78504); assay: proximity ligation; in cells; details only in Supplementary Fig. 4A

Amino acid sequences for entries named in this document (tags omitted). Residues count along the entry.
UniProt P78504, residues 34-1218: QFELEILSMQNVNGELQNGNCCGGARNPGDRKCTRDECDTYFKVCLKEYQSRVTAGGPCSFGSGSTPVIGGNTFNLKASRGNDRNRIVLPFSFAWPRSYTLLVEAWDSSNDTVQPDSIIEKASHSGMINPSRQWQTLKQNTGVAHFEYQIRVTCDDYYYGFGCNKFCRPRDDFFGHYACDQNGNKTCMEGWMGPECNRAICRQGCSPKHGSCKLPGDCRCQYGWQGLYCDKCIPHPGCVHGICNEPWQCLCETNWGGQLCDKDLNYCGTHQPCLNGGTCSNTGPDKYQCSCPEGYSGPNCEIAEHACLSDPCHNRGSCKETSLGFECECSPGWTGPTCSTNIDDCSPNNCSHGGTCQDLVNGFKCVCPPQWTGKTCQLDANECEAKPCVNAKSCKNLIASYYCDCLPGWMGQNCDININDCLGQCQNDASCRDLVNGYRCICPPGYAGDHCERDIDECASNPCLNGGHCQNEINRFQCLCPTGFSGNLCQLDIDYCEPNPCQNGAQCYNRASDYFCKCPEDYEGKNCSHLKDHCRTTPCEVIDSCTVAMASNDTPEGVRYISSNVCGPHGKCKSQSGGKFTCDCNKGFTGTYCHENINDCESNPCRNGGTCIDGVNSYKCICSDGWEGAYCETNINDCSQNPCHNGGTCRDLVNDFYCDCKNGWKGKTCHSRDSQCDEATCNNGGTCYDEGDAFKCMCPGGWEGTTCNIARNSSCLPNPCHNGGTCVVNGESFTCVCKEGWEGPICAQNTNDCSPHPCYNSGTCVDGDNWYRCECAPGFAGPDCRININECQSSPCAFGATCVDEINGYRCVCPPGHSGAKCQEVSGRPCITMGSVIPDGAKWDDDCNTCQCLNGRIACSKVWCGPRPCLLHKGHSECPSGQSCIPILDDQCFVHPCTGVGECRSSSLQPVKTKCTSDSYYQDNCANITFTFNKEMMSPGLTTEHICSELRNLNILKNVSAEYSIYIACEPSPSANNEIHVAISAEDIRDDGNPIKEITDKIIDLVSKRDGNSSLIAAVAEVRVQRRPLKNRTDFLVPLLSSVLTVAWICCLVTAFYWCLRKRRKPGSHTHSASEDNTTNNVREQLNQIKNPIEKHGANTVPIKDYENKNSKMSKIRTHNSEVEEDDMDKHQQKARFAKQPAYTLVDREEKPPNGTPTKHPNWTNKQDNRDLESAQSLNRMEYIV
UniProt P08670: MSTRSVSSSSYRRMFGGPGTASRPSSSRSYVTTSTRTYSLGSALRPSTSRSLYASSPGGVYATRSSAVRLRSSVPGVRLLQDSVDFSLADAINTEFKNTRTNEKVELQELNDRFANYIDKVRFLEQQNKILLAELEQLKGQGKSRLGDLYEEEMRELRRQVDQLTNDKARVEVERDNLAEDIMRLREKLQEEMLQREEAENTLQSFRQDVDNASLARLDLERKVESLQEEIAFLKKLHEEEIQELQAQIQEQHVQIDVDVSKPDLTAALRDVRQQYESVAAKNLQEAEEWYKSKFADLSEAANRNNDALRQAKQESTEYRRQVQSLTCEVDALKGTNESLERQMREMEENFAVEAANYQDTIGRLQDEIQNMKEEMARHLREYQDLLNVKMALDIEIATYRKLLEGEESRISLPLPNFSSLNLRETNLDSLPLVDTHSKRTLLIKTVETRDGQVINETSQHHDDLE

binding [1] | binding [2] | Substance
binds | binds | vimentin (from UniProt P08670 1-466)
binds |  | vimentin phosphorylated at serine 38 (from UniProt P08670 1-466)

— paper PMC6712036
